Measurements taken from PubChem BioAssay AID2685 (National Center for Advancing Translational Sciences (NCATS), 2010).
The list shows a part of the results. These are further read-outs of the screen, such as a control signal, another cell line or another target. No call is given for them. The list favours compounds with an active or inconclusive main result. Words in brackets tell the shape of the fitted curve; partial curves, single points and poor fits give uncertain potencies.

Experiment: qHTS Assay for Lipid Storage Modulators in Drosophila S3 Cells;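 as to cell number change: cells counted by Cell Tracker Red CMTPX staining in the red channel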
Settings: BODIPY lipid droplet fluorescence, 18-24 h; for cell number change: measured here: cell count max response, cells fed with added oleic acid
How it was run: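 Laser-scanning cytometry quantifies lipid droplet accumulation (500–530 nm total intensity; droplet/cell object ratio) in oleic acid-fed (400 uM added) Drosophila S3 cells treated with a concentration series. 20 uM Triacsin C defined 100% inhibition.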

[1] = measured here: cell number channel AC50, cells fed with added oleic acid
[2] = measured here: lipid fluorescence (Fed channel) AC50, cells fed with added oleic acid

Row | SMILES | cell number change | AC50 [1] | AC50 [2]
1 | Cc1ccccc1OCC(=O)NNC(=O)C1CCN(c2ncnc3sc(C)c(C)c23)CC1 | 58.2% | 20.6 µM [rising, partial curve] | 29.1 µM [rising, single point]
2 | O=S(=O)(NCc1cccnc1)c1cccn1-c1ncc(C(F)(F)F)cc1Cl | -11% |  | 
3 | CCCOC(=O)c1ccc(S(N)(=O)=O)o1 | -72.9% | 29.1 µM [falling, single point] | 9.2 µM [falling, partial curve]
4 | Cc1onc(-c2ccccc2Cl)c1C(=O)Nc1nnc(C(C)C)s1 | -18% |  | 11.6 µM [falling, partial curve]
5 | Cn1cc(CN2CCCC(C(=O)c3cccs3)C2)c(-c2cccc(Cl)c2)n1 (stereo not given) | 2.91% |  | 0.651 µM [falling, partial curve, poor fit]
6 | O=C(COC(=O)c1ccc(Cl)nc1)NCCC1=CCCCC1 | 19.4% |  | 
7 | O=C1CC(C(=O)N2CCN(c3ccccc3Cl)CC2)CN1Cc1ccccc1 (stereo not given) | -15.1% | 0.13 µM [falling, full curve, poor fit] | 0.103 µM [falling, full curve, poor fit]
8 | CCn1c(SCC(=O)Nc2cccc(F)c2)nnc1-c1cc2cc(Br)ccc2o1 |  |  | 6.51 µM [rising, single point]
9 | Cc1ccc(-c2nc(NCC3CCCO3)sc2C)cc1 (stereo not given) | 50.7% | 29.1 µM [rising, single point] | 0.146 µM [rising, full curve]
10 | O=C(Nc1cccn2ncnc12)C(Cl)Cl | -16% | 7.31 µM [falling, partial curve, poor fit] | 
11 | CC(CCc1ccccc1)NC(=O)CCC(=O)N1CCC(C(=O)O)CC1 (stereo not given) | 9.85% |  | 29.1 µM [rising, single point]
12 | COC(=O)c1c(NC(=O)CN2C(=O)NC(CCc3ccccc3)C2=O)sc2c1CCCCC2 (stereo not given) | 12.9% |  | 23.1 µM [rising, single point]
13 | CC(C)CC1NC(=O)N(Cc2cc(=O)n3ccsc3n2)C1=O (stereo not given) | 19.8% |  | 
14 | CC1CCN(CCC(=O)Nc2ccc(F)c(F)c2)CC1 | -1.65% |  | 0.58 µM [rising, single point]
15 | O=C(OCC1CCCN2CCCCC12)c1ccc2c(c1)OCO2 (stereo not given) | -9.69% |  | 0.326 µM [falling, partial curve]
16 | COC(=O)C1=C(C)N(C)C(=S)NC1c1c(OC)ccc2ccccc12 (stereo not given) | 154% |  | 
17 | COc1cccc(C(=O)c2cc3cc(Cl)ccc3[nH]2)c1 | 3.63% |  | 0.206 µM [rising, full curve, poor fit]
18 | CCOP(=O)(OCC)C(Nc1ccc([N+](=O)[O-])cc1)c1ccc(Cl)cc1 (stereo not given) | 49.3% |  | 18.4 µM [rising, single point]
19 | COC(=O)c1c(NC(=O)CCCC(=O)O)sc(C)c1C | 2.7% |  | 
20 | CCCCNc1nc(NC)nc(Cl)c1SC | -20.2% |  | 0.58 µM [falling, single point]

Two compounds picked at random from the list so far:
Row | SMILES | cell number change | AC50 [1] | AC50 [2]
18 | CCOP(=O)(OCC)C(Nc1ccc([N+](=O)[O-])cc1)c1ccc(Cl)cc1 (stereo not given) | 49.3% |  | 18.4 µM [rising, single point]
14 | CC1CCN(CCC(=O)Nc2ccc(F)c(F)c2)CC1 | -1.65% |  | 0.58 µM [rising, single point]

Later entries.

Row | SMILES | cell number change | AC50 [1] | AC50 [2]
21 | O=C(C1CCN(c2nc(-c3ccccc3)nc3c2CCC3)CC1)N1CCC(O)CC1 | -23.2% |  | 23.1 µM [falling, partial curve, poor fit]
22 | CSc1ccc(C2=CC(=O)C[C@H](c3ccc(F)cc3)C2)cc1 | -1.16% |  | 0.58 µM [falling, single point]
23 | CSc1ncccc1C(=O)N(C)CC(=O)Nc1ccc(Cl)c(C(F)(F)F)c1 | 8.65% |  | 
24 | CC(NC(=O)CN(C)Cc1cccs1)c1ccccc1 (stereo not given) | 24.3% |  | 0.13 µM [falling, full curve, poor fit]
25 | O=C(COC(=O)CC1CCCC1)Nc1ccc(OC(F)F)cc1 | 38.9% | 29.1 µM [rising, single point] | 
26 | CC(=O)N1N=C(c2ccc3nccnc3c2)CC1c1ccccc1 (stereo not given) | -9.21% |  | 
27 | O=c1cnc2cc([N+](=O)[O-])ccc2[nH]1 | 22.3% |  | 
28 | CNS(=O)(=O)c1ccc(N2CCCC2=O)c([N+](=O)[O-])c1 |  |  | 14.6 µM [falling, partial curve]
29 | CCOc1ccc(N(C)c2ccc(/C=C3/SC(=S)NC3=O)cc2)cc1 | -66.7% | 16.4 µM [falling, single point] | 3.26 µM [falling, full curve]
30 | CC(=O)c1c(C)[nH]c(C(=O)NC2=NCCS2)c1C |  |  | 1.3 µM [falling, partial curve, poor fit]
31 | Cc1ccc(C(=O)Oc2cc(N)n(S(=O)(=O)c3ccc(F)cc3)n2)cc1 | 17.1% |  | 0.58 µM [rising, single point]
32 | Cc1cc(C(C)(C)C)cc(C)c1C[n+]1ccc2ccccc2c1 | -60% | 20.6 µM [falling, partial curve] | 18.4 µM [falling, partial curve]
33 | COCCN(C(=O)COC(=O)c1cccs1)c1c(N)n(Cc2ccccc2)c(=O)[nH]c1=O | 5.74% |  | 
34 | O=C(CNc1ccccc1OC(F)F)N1CCc2ccccc21 | -5.89% | 0.13 µM [falling, full curve, poor fit] | 0.13 µM [falling, full curve, poor fit]
35 | COc1cc(C=O)ccc1OCC(=O)Nc1ccccc1N1CCOCC1 |  |  | 9.2 µM [falling, partial curve, poor fit]
36 | CCn1c(SC(C)C)nnc1-c1c[nH]c2ccccc12 | 3.02% |  | 
37 | Nc1ccc(-c2nc3ccc(N)cc3o2)cc1 | -10% |  | 32.6 µM [rising, single point]
38 | Cc1cc(C)nc(SCNC(=O)c2ccc(Cl)cc2)n1 | 52.8% | 20.6 µM [rising, single point] | 25.9 µM [rising, single point]
39 | O=C(/C=C/c1ccc([N+](=O)[O-])cc1)NCc1cccs1 | -71.8% | 23.1 µM [falling, partial curve] | 20.6 µM [falling, partial curve, poor fit]
40 | COc1ccc(S(=O)(=O)N2CCC(C(N)=O)(N3CCCCC3)CC2)cc1 | -15.8% |  | 0.411 µM [rising, full curve, poor fit]
